From publication PMC7655571, “Acetylcholinesterase inhibition in electric eel and human donor blood: an in vitro approach to investigate interspecies differences and human variability in toxicodynamics” (Archives of Toxicology, 2020)
Where two headings read alike, the source gives them in different places. The structures given here were assigned with low confidence; some may be wrong.

Sequences of proteins named here, by UniProt entry; tags and fusion partners are left off. Residues count along the entry.
UniProt O42275, 24-633 limits assumed: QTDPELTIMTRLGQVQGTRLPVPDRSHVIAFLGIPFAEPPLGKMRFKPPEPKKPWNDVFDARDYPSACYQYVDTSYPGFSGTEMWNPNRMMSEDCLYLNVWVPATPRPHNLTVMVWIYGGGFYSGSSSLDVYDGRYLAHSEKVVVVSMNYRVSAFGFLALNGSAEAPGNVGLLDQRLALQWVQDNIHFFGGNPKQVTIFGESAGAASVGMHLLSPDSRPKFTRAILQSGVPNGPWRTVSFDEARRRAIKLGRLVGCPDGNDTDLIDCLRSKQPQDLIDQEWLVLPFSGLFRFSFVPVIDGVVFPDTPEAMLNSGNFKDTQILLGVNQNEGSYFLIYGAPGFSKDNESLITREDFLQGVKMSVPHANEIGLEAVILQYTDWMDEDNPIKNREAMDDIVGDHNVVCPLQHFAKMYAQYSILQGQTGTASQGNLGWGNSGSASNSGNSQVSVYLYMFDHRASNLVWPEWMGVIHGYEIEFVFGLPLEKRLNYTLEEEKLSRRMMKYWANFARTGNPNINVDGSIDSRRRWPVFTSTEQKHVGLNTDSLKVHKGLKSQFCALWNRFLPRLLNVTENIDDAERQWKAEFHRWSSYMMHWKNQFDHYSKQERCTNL
UniProt P22303, 32-617 isoform 2 limits assumed: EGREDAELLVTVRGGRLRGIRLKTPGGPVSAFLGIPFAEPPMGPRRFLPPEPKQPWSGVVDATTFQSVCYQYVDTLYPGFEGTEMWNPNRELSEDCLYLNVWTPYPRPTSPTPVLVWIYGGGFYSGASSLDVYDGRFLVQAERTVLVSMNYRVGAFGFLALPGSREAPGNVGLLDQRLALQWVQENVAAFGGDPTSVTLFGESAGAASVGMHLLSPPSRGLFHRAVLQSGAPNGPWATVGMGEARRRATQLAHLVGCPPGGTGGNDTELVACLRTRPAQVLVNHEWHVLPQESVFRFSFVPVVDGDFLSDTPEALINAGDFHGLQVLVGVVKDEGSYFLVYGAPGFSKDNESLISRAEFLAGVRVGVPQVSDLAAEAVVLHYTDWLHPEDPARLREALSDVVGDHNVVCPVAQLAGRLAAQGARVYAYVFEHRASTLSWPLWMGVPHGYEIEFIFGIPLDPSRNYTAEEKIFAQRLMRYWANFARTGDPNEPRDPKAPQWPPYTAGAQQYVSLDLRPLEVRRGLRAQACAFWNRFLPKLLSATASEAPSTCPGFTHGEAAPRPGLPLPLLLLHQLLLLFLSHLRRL

What was measured:
[1] = molecular target: Electrophorus electricus AChE (Electrophorus electricus, UniProt O42275); assay: AChE inhibition, electric eel enzyme (Ellman method); assay type: biochemical
human blood AChE = human blood AChE (Homo sapiens, UniProt P22303); assay: AChE inhibition in human donor whole blood (Ellman method); assay type: biochemical

## COP(=O)(OC)SCN1C(=O)c2ccccc2C1=O
[1]; concentration–response curves
  AChE inhibition (in words), electric eel: show inhibition of AChE
[1]; read-out: IC20 Electric eel, 30 min exposure, room temperature
  IC20: 40 nM
[1]; read-out: IC50 Electric eel, 30 min exposure, room temperature, 3–4 independent experiments
  IC50: 70 nM
Human blood AChE; concentration–response curves
  AChE inhibition (in words), human blood: show inhibition of AChE
Human blood AChE; human variability in AChE inhibition, concentration level C1 (Table S2)
  Coefficient of variation (CV) C1 Human: 5.8%
Human blood AChE; human variability in AChE inhibition, concentration level C2 (Table S2)
  Coefficient of variation (CV) C2 Human: 5.9%
Human blood AChE; human variability in AChE inhibition, concentration level C3 (Table S2)
  Coefficient of variation (CV) C3 Human: 5.6%
Human blood AChE; human variability in AChE inhibition, concentration level C4 (Table S2)
  Coefficient of variation (CV) C4 Human: 7.7%
Human blood AChE; human variability in AChE inhibition, concentration level C5 (Table S2)
  Coefficient of variation (CV) C5 Human: 6.1%
Human blood AChE; human variability in AChE inhibition, highest concentration C6 (Table S2)
  Coefficient of variation (CV) C6 Human: 7%
Human blood AChE; interindividual differences, concentration closest to the IC20, 95% CI in brackets
  Human uncertainty factor (UF) UF97.5: 1.6 [1.4–1.8]
Human blood AChE; read-out: IC20 Human, whole blood, average of 20 donors
  IC20: 670 nM
Human blood AChE; read-out: IC20 Value, donor 1
  IC20: 300 nM
Human blood AChE; read-out: IC20 Value, donor 2
  IC20: 200 nM
Human blood AChE; read-out: IC20 Value, donor 3
  IC20: 300 nM
Human blood AChE; read-out: IC20 Value, donor 4
  IC20: 200 nM
Human blood AChE; read-out: IC20 Value, donor 5
  IC20: 400 nM
Human blood AChE; read-out: IC20 Value, donor 6
  IC20: 700 nM
Human blood AChE; read-out: IC20 Value, donor 7
  IC20: 1000 nM
Human blood AChE; read-out: IC20 Value, donor 8
  IC20: 400 nM
Human blood AChE; read-out: IC20 Value, donor 9
  IC20: 600 nM
Human blood AChE; read-out: IC20 Value, donor 10
  IC20: 400 nM
Human blood AChE; read-out: IC20 Value, donor 11
  IC20: 300 nM
Human blood AChE; read-out: IC20 Value, donor 12
  IC20: 800 nM
Human blood AChE; read-out: IC20 Value, donor 13
  IC20: 1500 nM
Human blood AChE; read-out: IC20 Value, donor 14
  IC20: 400 nM
Human blood AChE; read-out: IC20 Value, donor 15
  IC20: 600 nM
Human blood AChE; read-out: IC20 Value, donor 16
  IC20: 800 nM
Human blood AChE; read-out: IC20 Value, donor 17
  IC20: 900 nM
Human blood AChE; read-out: IC20 Value, donor 18
  IC20: 1000 nM
Human blood AChE; read-out: IC20 Value, donor 19
  IC20: 1100 nM
Human blood AChE; read-out: IC20 Value, donor 20
  IC20: 1500 nM
Human blood AChE; read-out: IC50 Human, whole blood, average of 20 donors
  IC50: 1800 nM
Human blood AChE; read-out: IC50 Value, donor 1
  IC50: 700 nM
Human blood AChE; read-out: IC50 Value, donor 2
  IC50: 600 nM
Human blood AChE; read-out: IC50 Value, donor 3
  IC50: 800 nM
Human blood AChE; read-out: IC50 Value, donor 4
  IC50: 400 nM
Human blood AChE; read-out: IC50 Value, donor 5
  IC50: 1000 nM
Human blood AChE; read-out: IC50 Value, donor 6
  IC50: 1400 nM
Human blood AChE; read-out: IC50 Value, donor 7
  IC50: 3100 nM
Human blood AChE; read-out: IC50 Value, donor 8
  IC50: 1300 nM
Human blood AChE; read-out: IC50 Value, donor 9
  IC50: 1300 nM
Human blood AChE; read-out: IC50 Value, donor 10
  IC50: 1000 nM
Human blood AChE; read-out: IC50 Value, donor 11
  IC50: 1500 nM
Human blood AChE; read-out: IC50 Value, donor 13
  IC50: 3700 nM
Human blood AChE; read-out: IC50 Value, donor 14
  IC50: 1400 nM
Human blood AChE; read-out: IC50 Value, donor 16
  IC50: 2300 nM
Human blood AChE; read-out: IC50 Value, donor 17
  IC50: 2100 nM
Human blood AChE; read-out: IC50 Value, donor 18
  IC50: 2300 nM
Human blood AChE; read-out: IC50 Value, donor 19
  IC50: 4200 nM
Human blood AChE; read-out: IC50 Value, donor 20
  IC50: 4000 nM
